Source: ChEMBL document CHEMBL3988442, “University of Dundee, Small-Polar-MMV Screening Library” (2021).

A: 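Growth of Mycobacterium tuberculosis over 4 days (cholesterol / DPPC medium with tyloxapol); the read-out is not stated. Tested at 50 µM. Higher reads as more growth inhibition (inferred: compounds with an IC50 in retests scored well above the rest). Of about 69,000 compounds tested this way, about 370 (0.54%) reached 50% or more in at least one test.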
B: 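Phenotypic screen: M. tuberculosis growth, glucose 7H9 medium, 3 days; the read-out is not stated. Compounds at 50 µM. Higher reads as more growth inhibition (inferred: compounds with an IC50 in retests scored well above the rest). Of about 69,000 compounds tested this way, about 760 (1.1%) reached 50% or more in at least one test.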

Results are given as percent effect. How 0% and 100% were set is not recorded. Most values in the screen are low, and negative values occur. Compounds were drawn at random from those tested, without regard to their results. Two or more numbers in one place are separate tests of the same structure; such repeats can differ widely.

{"compound": "CC(NC(=O)c1ccc2c(c1)OCC(=O)N2)c1ccccc1F", "stereo": "stereo unspecified", "A": 3.821, "B": -5.658}
{"compound": "Cc1cccc(OCCCNC(=O)NC(C)c2nncn2C)c1", "stereo": "stereo unspecified", "A": 19.64, "B": 26.2}
{"compound": "CCn1cc(-c2cc(-c3ccn(C)c3)nc(N)c2C#N)cc1C#N", "A": 2.438, "B": -14.17}
{"compound": "Cc1cc(CN2CCC(CNS(=O)(=O)c3ccccc3F)CC2)c(C)o1", "A": -13.63, "B": "-23.49 & -0.1626"}
{"compound": "O=C(NCCn1ccc(-c2ccccn2)n1)C1CC1", "A": 3.524, "B": 19.04}
{"compound": "Cc1cnc(N2C(=O)CSC2c2ccc(F)cc2)s1", "stereo": "stereo unspecified", "A": 27.3, "B": "54.6 & 19.86"}
{"compound": "CC(C)C1CN(Cc2cnc(N(C)C)nc2)CCCN1CC1CC1", "stereo": "stereo unspecified", "A": -6.94, "B": -0.8127}
{"compound": "CC(C)CS(=O)(=O)CCNc1ncccn1", "A": 10.3, "B": 38.95}
{"compound": "CNc1cc(C)nc(N2CCN(Cc3ccccc3)CC(O)C2)n1", "stereo": "stereo unspecified", "A": -0.882, "B": 18.2}
{"compound": "COc1ncc(C(=O)NCc2ccc(Br)cc2)cn1", "A": -2.002, "B": 19.36}
{"compound": "[H][C@]12CC[C@]([H])(CN(Cc3cccnc3)C1)N(C(=O)Cc1ccccc1C)C2", "A": -1.484, "B": 16.68}
{"compound": "Cc1ccc(S(C)(=O)=O)cc1C(=O)NS(=O)(=O)c1ccc(Cl)cc1", "A": 8.424, "B": -12.9}
{"compound": "CC(C)n1cnc(-c2nc(C(=O)N3CCCC3)c3ccccn23)c1", "A": 6.992, "B": "5.945 & 5.183"}
{"compound": "COc1ccc(-c2n[nH]c(C)c2CC(=O)NCCN2CCOCC2)cc1", "A": 1.674, "B": 0.7629}
{"compound": "Cc1ccc(NC2CCN(C(=O)CCCc3cccs3)CC2)nn1", "A": -11.3, "B": 6.864}
{"compound": "Cc1noc(CN2CCCC2c2noc(C3CC3)n2)n1", "stereo": "stereo unspecified", "A": -7.908, "B": 6.391}
{"compound": "Cc1cccc(CN2CC3C[C@]3(NC(=O)c3ccoc3)C2)n1", "stereo": "stereo partly specified", "A": 8.655, "B": "0.04246 & -6.166"}
{"compound": "Cc1noc(C)c1-c1cc(CCC2CN(C(=O)CN)CCO2)ncn1", "stereo": "stereo unspecified", "A": "-2.09 & -2.488", "B": -11.43}
{"compound": "O=C(NCc1ccco1)c1cccc(CN2CCCC2CO)c1", "stereo": "stereo unspecified", "A": -1.579, "B": 13.07}
{"compound": "CN(C)c1cc(C(=O)N2CCN(S(C)(=O)=O)CC2)ccn1", "A": -17.36, "B": 2.09}
{"compound": "O=S(=O)(C1CC1)N1CCn2c(Cn3cncn3)cnc2C1", "A": 5.353, "B": "12.93 & -0.1879"}
{"compound": "CCS(=O)(=O)N1CCC2(CCN(CC(=O)N(C)C)C2=O)CC1", "A": -3.293, "B": 6.887}
{"compound": "CN1CCCN(C(=O)NCc2ccccc2Cn2cncn2)CC1", "A": -13.05, "B": "-12.84 & 0.2094"}
{"compound": "CN1CCC(c2nc3ccc(-c4ccccc4)cn3n2)CC1.O=C(O)C(F)(F)F", "A": 20.5, "B": -0.4335}
{"compound": "Cn1c(SCc2noc(-c3ccsc3)n2)nnc1C1CCS(=O)(=O)C1", "stereo": "stereo unspecified", "A": -14.64, "B": "-17.26 & -1.414"}
{"compound": "CC(C)(C)NC(=O)CCn1ncc2c(Cl)cccc21", "A": -0.7486, "B": 17.48}
{"compound": "CCN(Cc1c(F)cccc1F)C(=O)c1ccncc1O", "A": -6.287, "B": -1.713}
{"compound": "CN1CCN(C(=O)c2cccn2C)Cc2cccnc21", "A": -6.505, "B": -7.752}
{"compound": "Cc1nc(CC(=O)N2CCN(CCOc3ccccc3)CC2)cs1", "A": 12.85, "B": 15.71}
{"compound": "[H][C@]1([C@H](O)c2ccc(NC(=O)c3ccccc3OC)cc2)COCC(=O)N1", "A": -4.454, "B": "2.651 & 5.094"}
{"compound": "CC(C)C(=O)NCCc1cc2nc(-c3ccncc3)ccn2n1", "A": "0.8112 & 6.594", "B": -21.63}
{"compound": "COc1cccc(CN2CC(=O)N(c3ccccc3C)CC2C)c1OC", "stereo": "stereo unspecified", "A": -10.72, "B": -2.959}
{"compound": "CN1CCN(Cc2cccnc2)C2(CCN(Cc3ccoc3)C2)C1=O.O=C(O)C(F)(F)F.O=C(O)C(F)(F)F.O=C(O)C(F)(F)F", "stereo": "stereo unspecified", "A": -2.604, "B": "-22.87 & 1.081"}
{"compound": "CN(Cc1cc(C2CC2)on1)C(=O)CN1CC(c2ccccc2)CC1=O", "stereo": "stereo unspecified", "A": -13.3, "B": 21.27}
{"compound": "CCCN1CC2(CCN(C)CC2)CC1C(=O)NCCn1cc(C)cn1", "stereo": "stereo unspecified", "A": -15.43, "B": -14.74}

The first 2 entries again:

Compound	A	B
CC(NC(=O)c1ccc2c(c1)OCC(=O)N2)c1ccccc1F (stereo unspecified)	3.821%	-5.658%
Cc1cccc(OCCCNC(=O)NC(C)c2nncn2C)c1 (stereo unspecified)	19.64%	26.2%